Results as given in US20090298811A1, “BENZIMIDAZOLONE DERIVATIVES” (Pfizer Inc, priority 2006, published 2009).

Chains of the proteins cited; added tags and fusions are not shown.
UniProt P21554, whole entry: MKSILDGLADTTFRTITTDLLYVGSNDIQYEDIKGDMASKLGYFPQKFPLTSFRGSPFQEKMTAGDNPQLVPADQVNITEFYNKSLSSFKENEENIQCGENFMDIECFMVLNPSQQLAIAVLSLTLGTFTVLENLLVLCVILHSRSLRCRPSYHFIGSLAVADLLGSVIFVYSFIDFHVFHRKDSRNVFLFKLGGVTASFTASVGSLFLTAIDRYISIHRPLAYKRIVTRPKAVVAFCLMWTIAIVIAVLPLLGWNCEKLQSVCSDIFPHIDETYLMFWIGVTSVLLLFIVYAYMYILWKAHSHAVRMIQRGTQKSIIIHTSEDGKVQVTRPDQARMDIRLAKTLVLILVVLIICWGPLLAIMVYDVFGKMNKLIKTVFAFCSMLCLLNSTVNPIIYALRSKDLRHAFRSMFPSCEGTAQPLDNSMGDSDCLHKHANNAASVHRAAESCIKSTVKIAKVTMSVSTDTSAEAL

Key:
human CB1 receptor [1] = target: T1, human CB1 receptor (Homo sapiens, UniProt P21554); assay: GTPγS binding on membranes of CHO cells expressing the human CB1 receptor; conditions: read-out: GTPγS EC50, CHO cell membranes, [35S] GTPγS
Experimental: Membrane preparation: CHO cells expressing the human CB1 receptor were grown to 80% confluence in Ham's F-12 Nutrient Medium (Invitrogen) containing 10% fetal bovine serum (Invitrogen), 1% pen/strep (Invitrogen), 1% Nonessential amino acids (Invitrogen) and 500 μg/ml G418 (Invitrogen). Cells were released from flasks using Cell Dissociation Buffer (Invitrogen). Cells were pelleted by centrifugation at 500×G for 5 minutes. Membranes were prepared by resuspending cells in ice cold Assay Buffer (25 mM Tris pH 7.4, 5 mM EDTA, 5 mM EGTA, Complete Protease Inhibitor (Roche)). Cells were lysed with 12 strokes of a dounce homogenizer. Unlysed cells were pelleted by centrifugation at 500×G for 5 minutes. Membranes were pelleted by centrifugation at 25,000×G for 30 minutes. Membranes were resuspended in TEE, dounced 12 strokes, and pelleted a second time at 25,000×G for 30 minutes. Membrane pellet was resuspended in 50 mM Tris pH 7.4, 100 mM NaCl, 3 mM MgCl2, 0.2 mM EGTA, Complete Protease Inhibitor (Roche). Protein concentration was determined using the Micro-BCA Protein Assay Kit (Pierce) using BSA as a standard. […] 40 μl of Microscint-20 (Perkin Elmer) was added per well, and plates were counted using a Top-Count Microplate Scintillation Counter (Perkin Elmer). Binding data were analyzed and EC50 values were calculated using Graph Pad Prism 4.0 Software.

human CB1 receptor [2] = target: T1, human CB1 receptor; assay: Human CB1 receptor binding, [3H] CP-55,940 displacement on HEK cell membranes; conditions: read-out: CB1 Ki, [3H] CP-55,940 500 pM
Experimental: The Human CB1 receptor binding affinity and other biological activities of the compounds of this invention are determined by the following procedures.
Membrane preparation: Human Embryonic Kidney (HEK) Cells expressing the human CB1 receptor under transcriptional regulation of a tetracycline inducible promoter were grown in Dulbecco's Modified Essential Medium with sodium pyruvate (Invitrogen, Carlsbad, Calif.) containing 10% tetracycline free fetal bovine serum (Clonetech, Mountain View, Calif.) 100 μg/ml hygromycin (Calbiochem, San Diego, Calif.), 5 μg/ml blasticidin (Invitrogen). CB1 receptor expression was induced by addition of 1 μg/ml doxycycline (Calbiochem) and incubation for an additional 24 hours. Cells were released from flasks using Cell Dissociation Buffer (Invitrogen). Cells were pelleted by centrifugation at 500×G for 5 minutes. […] Protein concentration was determined using the Micro-BCA Protein Assay Kit (Pierce, Rockford, Ill.) using BSA as a standard. […] Nonspecific binding was determined by incubation with 50 μM WIN-55,212-2 (Tocris, Ellisville, Mo.). […] 40 μl of Microscint-20 (Perkin Elmer) was added per well, and plates were counted using a Top-Count Microplate Scintillation Counter (Perkin Elmer). Binding data were analyzed and EC50 and Ki values calculated using Graph Pad Prism 4.0 Software.

Q: CSCCn1c(=O)n(C(=O)N[C@H](C(N)=O)C(C)(C)C)c2cccc(C)c21 was tested. Which EC50 (human CB1 receptor [1]) did it give?
A: 15 nM

Q: What about the Ki (human CB1 receptor [2]) of the same compound?
A: 0.95 nM

Structures were worked out from names or drawings and are uncertain.
